The reference is the same well before dosing, and untreated signal decays as well.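 Fibroblast labels denote human fibroblasts, mainly primary ones from uterus (C12385, HUF), lung (H6013), bone (Hs27A), adrenal (HADF) and skin (WS1), plus mammary HMF and breast cancer-associated Hs343T. Cancer cells are basal-like or mesenchymal-like triple-negative breast cancer lines. A hit is a response shift exceeding 3x replicate standard deviation. The tissue of the other fibroblasts is not given here.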
Test system: Hs578T
Experiment: relative JC-1 red fluorescence (viability) vs pre-drug, coculture with fibroblast (fraction); higher = more viable cancer cells
Protocol: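 JC-1 labelled TNBC cells cocultured 1:1 (1,500 cells each) with CellTrace Violet stained primary or stromal fibroblasts in 384-well plates in FluoroBrite medium, treated with one of 42 anticancer drugs at 0.1, 1, 10 or 100 uM. JC-1 red fluorescence (mitochondrial integrity in cancer cells only) was read by plate reader every 8 h for 72 h. Values are normalised to each well's pre-drug value. The stock of one drug was tenfold lower, so its dose labels may be too high.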

CCN(CC)CCNC(=O)c1c(C)[nH]c(/C=C2\C(=O)Nc3ccc(F)cc32)c1C [Sunitinib]
relative JC-1 red fluorescence
Settings	8 h	16 h	24 h	32 h	40 h	48 h	56 h	64 h	72 h
0.1 µM	0.8759	0.8033	0.77	0.737	0.696	0.661	0.649	0.613	0.606
1 µM	0.879	0.796	0.754	0.718	0.667	0.625	0.6089	0.56854	0.539

relative JC-1 red fluorescence
Settings	8 h	16 h	24 h	32 h	40 h	48 h	56 h	64 h	72 h
0.1 µM, coculture fibroblast: C12385	0.799	0.728	0.702	0.618	0.562	0.541	0.5153	0.52139	0.5226
0.1 µM, coculture fibroblast: H6013	0.819	0.7884	0.749	0.732	0.716	0.717	0.71	0.712	0.691
0.1 µM, coculture fibroblast: H6019	0.749	0.692	0.706	0.622	0.602	0.594	0.573	0.568	0.55
0.1 µM, coculture fibroblast: H6076	0.889	0.839	0.797	0.769	0.731	0.734	0.719	0.713	0.707
0.1 µM, coculture fibroblast: H6231	0.888	0.8207	0.758	0.713	0.649	0.626	0.587	0.57	0.565
0.1 µM, coculture fibroblast: HADF	0.858	0.819	0.764	0.728	0.704	0.684	0.655	0.656	0.646
0.1 µM, coculture fibroblast: HCFa	0.812	0.777	0.749	0.716	0.689	0.678	0.655	0.656	0.621
0.1 µM, coculture fibroblast: HCPF	0.903	0.835	0.792	0.769	0.722	0.70312	0.7	0.674	0.661
0.1 µM, coculture fibroblast: HHSteC	0.847	0.819	0.788	0.751	0.718	0.695	0.673	0.66	0.632
0.1 µM, coculture fibroblast: HMF	0.835	0.799	0.7799	0.78	0.74	0.735	0.719	0.708	0.709
0.1 µM, coculture fibroblast: HPFa	0.8927	0.841	0.801	0.758	0.731	0.715	0.685	0.674	0.648
0.1 µM, coculture fibroblast: HUF	0.852	0.733	0.716	0.626	0.579	0.562	0.539	0.542	0.538
0.1 µM, coculture fibroblast: Hs27A	0.85	0.794	0.754	0.72	0.666	0.655	0.625	0.623	0.579
0.1 µM, coculture fibroblast: Hs343T	0.891	0.818	0.79	0.767	0.719	0.707	0.681	0.666	0.67
0.1 µM, coculture fibroblast: WS1	0.801	0.73	0.6985	0.6172	0.577	0.56	0.543	0.542	0.544
1 µM, coculture fibroblast: C12385	0.795	0.7124	0.685	0.6053	0.555	0.534	0.518	0.506	0.507
1 µM, coculture fibroblast: H6013	0.841	0.83	0.828	0.821	0.814	0.818	0.807	0.808	0.79
1 µM, coculture fibroblast: H6019	0.7614	0.697	0.673	0.587	0.546	0.519	0.496	0.477	0.446
1 µM, coculture fibroblast: H6076	0.899	0.856	0.824	0.801	0.769	0.773	0.753	0.737	0.729
1 µM, coculture fibroblast: H6231	0.914	0.889	0.842	0.79	0.732	0.701	0.664	0.64	0.625
1 µM, coculture fibroblast: HADF	0.865	0.812	0.769	0.739	0.726	0.706	0.679	0.673	0.652
1 µM, coculture fibroblast: HCFa	0.84	0.831	0.814	0.786	0.758	0.759	0.732	0.73	0.694
1 µM, coculture fibroblast: HCPF	0.869	0.81	0.778	0.751	0.709	0.693	0.679	0.637	0.617
1 µM, coculture fibroblast: HHSteC	0.839	0.797	0.767	0.73	0.699	0.676	0.66	0.64	0.611
1 µM, coculture fibroblast: HMF	0.89	0.855	0.816	0.794	0.75	0.728	0.7	0.669	0.652
1 µM, coculture fibroblast: HPFa	0.87	0.804	0.751	0.707	0.674	0.643	0.609	0.5902	0.5539
1 µM, coculture fibroblast: HUF	0.828	0.7079	0.7124	0.6288	0.5907	0.561	0.54	0.537	0.534
1 µM, coculture fibroblast: Hs27A	0.881	0.847	0.81	0.775	0.721	0.714	0.668	0.672	0.627
1 µM, coculture fibroblast: Hs343T	0.864	0.784	0.7517	0.739	0.689	0.672	0.654	0.634	0.637
1 µM, coculture fibroblast: WS1	0.776	0.706	0.7024	0.63	0.586	0.576	0.5581	0.5528	0.552

Source: the supplement of paper PMC6078165
